{"sequences": {"note": "Amino acid sequences for entries named in this document (tags omitted). A change or cut given only in a name is not applied to a line headed by its entry. Residues count along the entry.", "UniProt Q07820": "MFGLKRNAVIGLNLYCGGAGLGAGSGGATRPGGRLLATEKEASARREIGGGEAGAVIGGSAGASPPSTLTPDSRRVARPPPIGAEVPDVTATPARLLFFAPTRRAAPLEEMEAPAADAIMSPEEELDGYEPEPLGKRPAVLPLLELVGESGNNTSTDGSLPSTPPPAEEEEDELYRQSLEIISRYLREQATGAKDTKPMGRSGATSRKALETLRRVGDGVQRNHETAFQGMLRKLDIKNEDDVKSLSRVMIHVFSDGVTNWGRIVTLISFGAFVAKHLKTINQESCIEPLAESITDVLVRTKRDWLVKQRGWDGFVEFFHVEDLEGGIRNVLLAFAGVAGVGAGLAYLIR", "UniProt Q9Y4K3, residues 1-351": "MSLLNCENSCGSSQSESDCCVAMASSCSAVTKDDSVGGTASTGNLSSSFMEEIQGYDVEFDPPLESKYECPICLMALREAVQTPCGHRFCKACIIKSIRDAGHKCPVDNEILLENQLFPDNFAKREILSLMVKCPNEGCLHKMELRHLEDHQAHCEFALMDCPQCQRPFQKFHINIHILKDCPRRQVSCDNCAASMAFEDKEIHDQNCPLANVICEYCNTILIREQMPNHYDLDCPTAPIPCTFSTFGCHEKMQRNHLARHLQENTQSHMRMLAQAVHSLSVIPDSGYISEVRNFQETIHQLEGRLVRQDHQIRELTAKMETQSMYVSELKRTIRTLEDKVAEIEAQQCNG", "UniProt Q7Z6Z7": "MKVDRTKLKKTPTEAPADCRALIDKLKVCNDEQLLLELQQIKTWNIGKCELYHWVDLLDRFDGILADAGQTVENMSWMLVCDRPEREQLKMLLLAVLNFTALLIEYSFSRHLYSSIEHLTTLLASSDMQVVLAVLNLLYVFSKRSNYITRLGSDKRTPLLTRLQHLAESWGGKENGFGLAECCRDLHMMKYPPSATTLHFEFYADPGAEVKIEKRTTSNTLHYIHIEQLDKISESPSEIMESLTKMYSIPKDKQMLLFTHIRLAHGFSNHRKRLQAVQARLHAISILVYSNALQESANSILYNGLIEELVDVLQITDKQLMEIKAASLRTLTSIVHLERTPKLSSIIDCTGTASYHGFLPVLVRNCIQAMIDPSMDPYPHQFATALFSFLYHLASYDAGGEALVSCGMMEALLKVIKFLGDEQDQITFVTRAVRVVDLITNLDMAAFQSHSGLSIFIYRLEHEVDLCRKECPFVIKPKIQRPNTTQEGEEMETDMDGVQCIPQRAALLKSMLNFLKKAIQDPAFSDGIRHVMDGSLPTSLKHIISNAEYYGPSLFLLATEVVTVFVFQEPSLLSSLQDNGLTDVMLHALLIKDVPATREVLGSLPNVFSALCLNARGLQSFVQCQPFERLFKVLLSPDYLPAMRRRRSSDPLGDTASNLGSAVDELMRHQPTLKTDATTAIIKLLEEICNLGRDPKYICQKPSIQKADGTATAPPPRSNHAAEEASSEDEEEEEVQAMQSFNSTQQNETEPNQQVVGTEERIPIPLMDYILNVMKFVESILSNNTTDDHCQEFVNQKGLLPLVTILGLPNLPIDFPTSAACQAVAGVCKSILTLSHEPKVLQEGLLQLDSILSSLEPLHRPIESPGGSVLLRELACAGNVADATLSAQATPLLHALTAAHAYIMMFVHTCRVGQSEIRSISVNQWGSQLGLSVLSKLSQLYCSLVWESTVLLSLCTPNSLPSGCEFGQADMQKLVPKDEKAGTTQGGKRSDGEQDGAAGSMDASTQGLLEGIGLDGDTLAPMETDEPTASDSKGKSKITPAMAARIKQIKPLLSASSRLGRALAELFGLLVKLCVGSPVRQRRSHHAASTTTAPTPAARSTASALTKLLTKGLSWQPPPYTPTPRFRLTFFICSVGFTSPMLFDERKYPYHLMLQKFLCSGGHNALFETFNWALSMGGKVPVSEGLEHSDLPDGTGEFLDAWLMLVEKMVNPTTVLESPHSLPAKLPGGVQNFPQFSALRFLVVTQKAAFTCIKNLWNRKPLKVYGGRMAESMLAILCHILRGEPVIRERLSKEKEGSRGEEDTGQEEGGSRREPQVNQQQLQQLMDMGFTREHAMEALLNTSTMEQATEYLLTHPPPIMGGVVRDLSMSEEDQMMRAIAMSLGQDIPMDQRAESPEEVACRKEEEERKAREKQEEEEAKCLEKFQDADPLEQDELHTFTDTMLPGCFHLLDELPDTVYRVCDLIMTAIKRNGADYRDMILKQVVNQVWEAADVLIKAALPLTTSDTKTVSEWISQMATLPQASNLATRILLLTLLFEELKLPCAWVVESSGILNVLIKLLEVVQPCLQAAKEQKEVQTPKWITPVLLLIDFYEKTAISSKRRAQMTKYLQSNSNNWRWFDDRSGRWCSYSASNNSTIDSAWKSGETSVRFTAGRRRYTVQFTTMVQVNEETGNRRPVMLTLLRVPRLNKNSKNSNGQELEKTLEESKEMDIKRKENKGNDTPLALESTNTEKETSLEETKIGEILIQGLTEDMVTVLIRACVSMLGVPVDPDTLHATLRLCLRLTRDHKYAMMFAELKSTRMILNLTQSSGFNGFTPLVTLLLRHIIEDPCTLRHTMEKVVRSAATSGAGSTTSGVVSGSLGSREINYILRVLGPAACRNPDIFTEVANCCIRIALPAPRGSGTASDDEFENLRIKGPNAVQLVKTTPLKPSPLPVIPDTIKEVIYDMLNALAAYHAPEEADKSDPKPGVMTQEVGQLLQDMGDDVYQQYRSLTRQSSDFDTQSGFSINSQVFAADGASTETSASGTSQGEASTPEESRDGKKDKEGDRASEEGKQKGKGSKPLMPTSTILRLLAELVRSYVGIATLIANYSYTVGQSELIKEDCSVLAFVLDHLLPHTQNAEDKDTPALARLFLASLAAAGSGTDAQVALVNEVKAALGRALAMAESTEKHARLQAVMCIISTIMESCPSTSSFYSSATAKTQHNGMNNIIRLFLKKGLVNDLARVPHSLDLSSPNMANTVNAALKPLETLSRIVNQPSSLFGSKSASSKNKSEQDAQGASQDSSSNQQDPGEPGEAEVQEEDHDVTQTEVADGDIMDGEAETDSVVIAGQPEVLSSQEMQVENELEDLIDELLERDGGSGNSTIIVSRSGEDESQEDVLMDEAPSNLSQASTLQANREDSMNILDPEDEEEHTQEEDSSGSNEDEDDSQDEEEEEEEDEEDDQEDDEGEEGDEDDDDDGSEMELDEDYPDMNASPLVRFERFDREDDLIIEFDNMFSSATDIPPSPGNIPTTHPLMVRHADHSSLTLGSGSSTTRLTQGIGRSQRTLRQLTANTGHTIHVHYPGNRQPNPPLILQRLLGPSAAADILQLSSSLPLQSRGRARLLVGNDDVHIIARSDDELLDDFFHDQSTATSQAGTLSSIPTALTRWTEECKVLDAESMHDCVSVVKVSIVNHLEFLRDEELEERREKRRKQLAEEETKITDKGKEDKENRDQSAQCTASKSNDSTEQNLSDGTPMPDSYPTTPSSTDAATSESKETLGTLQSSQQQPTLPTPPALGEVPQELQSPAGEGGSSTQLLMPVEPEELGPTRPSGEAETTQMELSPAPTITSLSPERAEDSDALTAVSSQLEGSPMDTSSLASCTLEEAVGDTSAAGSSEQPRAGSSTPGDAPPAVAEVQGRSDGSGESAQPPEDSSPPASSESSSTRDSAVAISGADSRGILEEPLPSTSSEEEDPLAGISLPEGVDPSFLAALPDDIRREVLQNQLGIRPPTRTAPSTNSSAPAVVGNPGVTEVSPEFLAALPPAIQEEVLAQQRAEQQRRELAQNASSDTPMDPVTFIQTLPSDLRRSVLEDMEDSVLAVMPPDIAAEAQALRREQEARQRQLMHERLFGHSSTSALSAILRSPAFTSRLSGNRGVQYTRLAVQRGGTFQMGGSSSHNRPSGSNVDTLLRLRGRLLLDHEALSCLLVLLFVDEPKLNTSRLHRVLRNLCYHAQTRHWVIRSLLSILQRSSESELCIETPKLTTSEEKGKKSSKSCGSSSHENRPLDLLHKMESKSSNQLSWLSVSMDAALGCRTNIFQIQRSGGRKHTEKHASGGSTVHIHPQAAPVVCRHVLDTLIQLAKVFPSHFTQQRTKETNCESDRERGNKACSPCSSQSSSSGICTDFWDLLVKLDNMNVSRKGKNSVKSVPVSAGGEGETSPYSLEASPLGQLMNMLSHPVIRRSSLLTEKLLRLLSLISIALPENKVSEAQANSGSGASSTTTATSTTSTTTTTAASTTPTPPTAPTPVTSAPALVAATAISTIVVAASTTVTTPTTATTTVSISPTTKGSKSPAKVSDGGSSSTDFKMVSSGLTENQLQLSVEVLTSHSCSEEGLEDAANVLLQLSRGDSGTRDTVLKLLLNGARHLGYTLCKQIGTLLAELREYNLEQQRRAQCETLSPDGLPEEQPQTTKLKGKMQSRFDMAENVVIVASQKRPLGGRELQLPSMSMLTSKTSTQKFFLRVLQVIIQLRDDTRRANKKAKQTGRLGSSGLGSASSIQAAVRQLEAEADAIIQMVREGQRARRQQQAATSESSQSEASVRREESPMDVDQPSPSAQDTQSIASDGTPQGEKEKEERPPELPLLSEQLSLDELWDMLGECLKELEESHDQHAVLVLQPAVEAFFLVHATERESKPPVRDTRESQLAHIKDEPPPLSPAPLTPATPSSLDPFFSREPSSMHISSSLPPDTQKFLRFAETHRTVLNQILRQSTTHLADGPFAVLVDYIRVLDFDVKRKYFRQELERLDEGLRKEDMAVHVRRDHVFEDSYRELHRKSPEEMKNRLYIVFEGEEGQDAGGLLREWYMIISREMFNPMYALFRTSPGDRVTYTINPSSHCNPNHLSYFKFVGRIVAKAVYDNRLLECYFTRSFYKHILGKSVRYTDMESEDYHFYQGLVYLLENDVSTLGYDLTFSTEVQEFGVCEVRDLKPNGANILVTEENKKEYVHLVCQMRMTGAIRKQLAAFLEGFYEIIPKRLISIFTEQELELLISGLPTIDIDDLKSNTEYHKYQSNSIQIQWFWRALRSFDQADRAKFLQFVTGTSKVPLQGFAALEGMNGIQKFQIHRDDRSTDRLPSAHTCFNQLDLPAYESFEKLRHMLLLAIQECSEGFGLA"}, "source": "paper PMC4207805", "molecules": {"B1": {"name": "Flag-TRAF2, Q12933 1-501 (protein)", "chain": "MAAASVTPPGSLELLQPGFSKTLLGTKLEAKYLCSACRNVLRRPFQAQCGHRYCSFCLASILSSGPQNCAACVHEGIYEEGISILESSSAFPDNAARREVESLPAVCPSDGCTWKGTLKEYESCHEGRCPLMLTECPACKGLVRLGEKERHLEHECPERSLSCRHCRAPCCGADVKAHHEVCPKFPLTCDGCGKKKIPREKFQDHVKTCGKCRVPCRFHAIGCLETVEGEKQQEHEVQWLREHLAMLLSSVLEAKPLLGDQSHAGSELLQRCESLEKKTATFENIVCVLNREVERVAMTAEACSRQHRLDQDKIEALSSKVQQLERSIGLKDLAMADLEQKVLEMEASTYDGVFIWKISDFARKRQEAVAGRIPAIFSPAFYTSRYGYKMCLRIYLNGDGTGRGTHLSLFFVVMKGPNDALLRWPFNQKVTLMLLDQNNREHVIDAFRPDVTSSSFQRPVNDMNIASGCPLFCPVSKMEAKNSYVRDDAIFIKAIVDLTGL"}}, "key": {"[1]": {"molecular_target": "HTLV-1 Tax (HTLV-1) (UniProt P03409)", "experiment": "co-IP; Tax immunoprecipitates from RIPA lysates of 293T cells transfected with Tax and Flag-tagged TRAF proteins or TRAF6 deletion mutants; anti-Flag blot"}, "[2]": {"molecular_target": "Flag-MCL-1 (human) (UniProt Q07820)", "experiment": "co-IP; lysates of 293T cells transfected with Flag-MCL-1 and Flag-MULE, HA-FBW7 or HA-βTRCP, with or without Tax; untreated or etoposide (10 µM, 6 h) with MG-132 (10 µM)"}, "[3]": {"molecular_target": "HTLV-1 Tax (HTLV-1), P03409", "experiment": "co-IP; Tax immunoprecipitates from RIPA lysates of 293T cells transfected with Tax and Flag-tagged TRAF proteins or TRAF6 deletion mutants; anti-Flag blot", "details": "remark: other sources report otherwise"}}, "note": "These are yes or no findings as the source states them, for the method shown. In cells and extracts the contact can be indirect. Some results given as binding are weak or reduced against the parent protein; the word gives no strength. For part of these data: Tags and fused reporters may be left off the sequences shown."}
{"molecule": "Flag-TRAF6 ΔTRAF-C (1–351 residues) (from UniProt Q9Y4K3 1-351) (domain or fragment)", "values": [{"measurement": "binding", "setting": "[1]", "value": "no binding"}]}
{"molecule": "Flag-MULE (from UniProt Q7Z6Z7 1-4374) (enzyme)", "values": [{"measurement": "binding", "setting": "[2]", "value": "binds"}]}
{"molecule": "B1", "values": [{"measurement": "binding", "setting": "[3]", "value": "no binding"}]}
